According to patent publication US20110319405A1, “Treatment and prevention of diffuse parenchymal lung disease by selective active-site mTOR inhibitors” (The Board of Trustees of the Leland Stanford Junior …, priority 2010, published 2011):
For some assays here: For at least one compound, name, drawing or mass did not settle the structure. Some entries share one result that the patent states for a list of compounds.

Key:
IPF fibroblasts = assay: Basal expression of stromal proteins in IPF fibroblasts (Western blot); type: cell-based, human
Experimental: (§1) Cell Culture and Reagents. Lung fibroblasts were isolated from patients undergoing surgical biopsy for the diagnosis of interstitial lung disease or lung transplant for IPF, and non-neoplastic tissue was obtained from patients undergoing surgical lung cancer resection, as described previously (Chang W. T. et al., J Biol Chem., 2001, 276, 2221-7). Fibroblasts were cultured in Dulbecco's modified Eagle's medium (DMEM) supplemented with 10% fetal bovine serum (FBS) at 5% CO2 at 37° C., and were used for studies for up to 5 passages after the initial preparation. For each experiment, cells were plated in culture vessels in DMEM complete medium and cultured until 70-80% in confluence, unless otherwise indicated.
(§2) Lung tissue was obtained from patients undergoing surgical biopsy for the diagnosis of interstitial lung disease or lung transplant for IPF, and non-neoplastic tissue was obtained from patients undergoing surgical lung cancer resection. […]
(§3) Western Blot Analysis. Western blot analysis and band intensity quantitation were performed as described previously (Chang W. T. et al., J Biol Chem., 2001, 276, 2221-7). Briefly, the protein concentration was measured by Bradford assay (Bio-Rad) according to the manufacturer's instructions. […] The blot was visualized by enhanced chemiluminescence (GE Healthcare) and analyzed using a Kodak Image Station 4000R system (Carestream Health, Rochester, N.Y.). […]

[1] = system: TGF-β-stimulated control lung fibroblasts; assay: TGF-β-mediated induction of stromal proteins in control lung fibroblasts (Western blot); type: cell-based, human
Experimental: as §1
(§4) Western Blot Analysis. Western blot analysis and band intensity quantitation were performed as described previously (Chang W. T. et al., J Biol Chem., 2001, 276, 2221-7). Briefly, the protein concentration was measured by Bradford assay (Bio-Rad) according to the manufacturer's instructions. An equal amount of protein was separated by SDS-PAGE and transferred to polyvinylidene difluoride membrane. […] The blot was visualized by enhanced chemiluminescence (GE Healthcare) and analyzed using a Kodak Image Station 4000R system (Carestream Health, Rochester, N.Y.).
In further studies, we examined if inhibition of mTORC1 and/or mTORC2 would limit TGF-β-mediated induction of stromal genes. […]

[2] = system: Akt (Ser473 and T308) phosphorylation; assay: Basal Akt phosphorylation in IPF fibroblasts (Western blot); type: cell-based, human; settings: dose-dependent, FIG. 1A/1B
Experimental: as §1, §2, §3

[3] = system: Akt (Ser473 and T308) activation; assay: TGF-β-mediated activation of Akt in control lung fibroblasts (Western blot); type: cell-based, human
Experimental: as §1, §4
In further studies, we examined if inhibition of mTORC1 and/or mTORC2 would limit TGF-β-mediated induction of stromal genes.

fetal lung fibroblasts = settings: fibroblasts exposed to TGF-β; cited from earlier work

Row | Compound | inhibition of basal expression of type I collagen (IPF fibroblasts) | blocking of TGF-β induction of FN [1] | blocking of TGF-β induction of SPARC [1] | blocking of TGF-β induction of α-SMA [1] | inhibition of type I collagen in the presence of TGF-β ([1]; FIG. 2C) | suppression of basal Akt (Ser473) phosphorylation [2] | blocking of TGF-β activation of Akt (Ser473) [3] | blocking of TGF-β activation of Akt (T308) [3] | Akt (Ser473) phosphorylation (fetal lung fibroblasts) | expression of EDA-FN (fetal lung fibroblasts) | expression of FN (fetal lung fibroblasts)
1 | COc1ccc(-c2ccc3c(N4CCOCC4)nc(N4C[C@@H](C)O[C@@H](C)C4)nc3n2)cc1CO [Ku-0063794] | over 80% | 75%-85% | 75%-85% | 75%-85% | over 95% |  |  |  |  |  | 
2 | CO[C@H]1C[C@@H]2CC[C@@H](C)[C@@](O)(O2)C(=O)C(=O)N2CCCC[C@H]2C(=O)O[C@H]([C@H](C)C[C@@H]2CC[C@@H](O)[C@H](OC)C2)CC(=O)[C@H](C)/C=C(\C)[C@@H](O)[C@@H](OC)C(=O)[C@H](C)C[C@H](C)/C=C/C=C/C=C/1C [rapamycin] |  |  |  |  |  | but not | but not | but not | without affecting | inhibited | inhibited
